Measured values: the supplement of paper PMC8728848
Some of the results follow.

Experiments:
Assay in all cases: glycan array binding signal (z-score within array); higher = stronger binding
Settings in all cases: glycan notation: IUPAC condensed, linker removed
[1] = molecular target: GlcNAc(b1-3)Gal(b1-4)GlcNAc(b1-3)Gal(b1-4)GlcNAc(b1-2)Man(a1-3)[GlcNAc(b1-3)Gal(b1-4)GlcNAc(b1-3)Gal(b1-4)GlcNAc(b1-2)Man(a1-6)]Man(b1-4)GlcNAc(b1-4)GlcNAc
Summary of the method: (§1)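 Arrays were curated from the Consortium for Functional Glycomics database, 3228 in total, and kept only where the protein sequence was available. Binding is expressed as a within-array Z-score. This score was averaged across arrays of the same protein sequence at different concentrations or buffers and across linkers, and negative values can be read as non-binding.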

[2] = molecular target: GlcNAc(b1-3)Gal(b1-4)GlcNAc(b1-3)Gal(b1-4)GlcNAc(b1-2)Man(a1-3)[GlcNAc(b1-3)Gal(b1-4)GlcNAc(b1-3)Gal(b1-4)GlcNAc(b1-2)Man(a1-6)]Man(b1-4)GlcNAc(b1-4)[Fuc(a1-6)]GlcNAc
Summary of the method: as §1

[3] = molecular target: GlcNAc(b1-3)Gal(b1-4)GlcNAc(b1-3)Gal(b1-4)GlcNAc(b1-2)[GlcNAc(b1-3)Gal(b1-4)GlcNAc(b1-3)Gal(b1-4)GlcNAc(b1-6)]Man(a1-6)[GlcNAc(b1-3)Gal(b1-4)GlcNAc(b1-3)Gal(b1-4)GlcNAc(b1-2)Man(a1-3)]Man(b1-4)GlcNAc(b1-4)[Fuc(a1-6)]GlcNAc
Summary of the method: as §1

[4] = molecular target: GlcNAc(b1-3)Gal(b1-4)GlcNAc(b1-3)Gal(b1-4)GlcNAc(b1-3)Gal(b1-4)GlcNAc(b1-2)Man(a1-3)[GlcNAc(b1-3)Gal(b1-4)GlcNAc(b1-3)Gal(b1-4)GlcNAc(b1-3)Gal(b1-4)GlcNAc(b1-2)Man(a1-6)]Man(b1-4)GlcNAc(b1-4)GlcNAc
Summary of the method: as §1

[5] = molecular target: GlcNAc(b1-3)Gal(b1-4)GlcNAc(b1-3)Gal(b1-4)GlcNAc(b1-3)Gal(b1-4)GlcNAc(b1-2)Man(a1-3)[GlcNAc(b1-3)Gal(b1-4)GlcNAc(b1-3)Gal(b1-4)GlcNAc(b1-3)Gal(b1-4)GlcNAc(b1-2)Man(a1-6)]Man(b1-4)GlcNAc(b1-4)[Fuc(a1-6)]GlcNAc
Summary of the method: as §1

[6] = molecular target: GlcNAc(b1-3)Gal(b1-4)GlcNAc(b1-3)Gal(b1-4)GlcNAc(b1-3)Gal(b1-4)GlcNAc(b1-2)[GlcNAc(b1-3)Gal(b1-4)GlcNAc(b1-3)Gal(b1-4)GlcNAc(b1-3)Gal(b1-4)GlcNAc(b1-6)]Man(a1-6)[GlcNAc(b1-3)Gal(b1-4)GlcNAc(b1-3)Gal(b1-4)GlcNAc(b1-3)Gal(b1-4)GlcNAc(b1-2)Man(a1-3)]Man(b1-4)GlcNAc(b1-4)[Fuc(a1-6)]GlcNAc
Summary of the method: as §1

[7] = molecular target: GlcNAc(b1-3)Gal(b1-4)GlcNAc(b1-3)Gal(b1-4)GlcNAc(b1-3)Gal(b1-4)GlcNAc(b1-3)Gal(b1-4)GlcNAc(b1-2)Man(a1-3)[GlcNAc(b1-3)Gal(b1-4)GlcNAc(b1-3)Gal(b1-4)GlcNAc(b1-3)Gal(b1-4)GlcNAc(b1-3)Gal(b1-4)GlcNAc(b1-2)Man(a1-6)]Man(b1-4)GlcNAc(b1-4)GlcNAc
Summary of the method: as §1

[8] = molecular target: GlcNAc(b1-3)Gal(b1-4)GlcNAc(b1-3)Gal(b1-4)GlcNAc(b1-3)Gal(b1-4)GlcNAc(b1-3)Gal(b1-4)GlcNAc(b1-2)Man(a1-3)[GlcNAc(b1-3)Gal(b1-4)GlcNAc(b1-3)Gal(b1-4)GlcNAc(b1-3)Gal(b1-4)GlcNAc(b1-3)Gal(b1-4)GlcNAc(b1-2)Man(a1-6)]Man(b1-4)GlcNAc(b1-4)[Fuc(a1-6)]GlcNAc
Summary of the method: as §1

[9] = molecular target: GlcNAc(b1-3)Gal(b1-4)GlcNAc(b1-3)Gal(b1-4)GlcNAc(b1-3)Gal(b1-4)GlcNAc(b1-3)Gal(b1-4)GlcNAc(b1-2)[GlcNAc(b1-3)Gal(b1-4)GlcNAc(b1-3)Gal(b1-4)GlcNAc(b1-3)Gal(b1-4)GlcNAc(b1-3)Gal(b1-4)GlcNAc(b1-6)]Man(a1-6)[GlcNAc(b1-3)Gal(b1-4)GlcNAc(b1-3)Gal(b1-4)GlcNAc(b1-3)Gal(b1-4)GlcNAc(b1-3)Gal(b1-4)GlcNAc(b1-2)Man(a1-3)]Man(b1-4)GlcNAc(b1-4)[Fuc(a1-6)]GlcNAc
Summary of the method: as §1

[10] = molecular target: GlcNAc(b1-3)Gal(b1-4)GlcNAc(b1-3)Gal(b1-4)GlcNAc(b1-3)GalNAc
Summary of the method: as §1

[11] = molecular target: GlcNAc(b1-3)Gal(b1-4)GlcNAc(b1-3)GalNAc
Summary of the method: as §1

[12] = molecular target: GlcNAc(b1-3)Gal(b1-4)GlcNAc(b1-3)[GlcNAc(b1-3)Gal(b1-4)GlcNAc(b1-3)]GalNAc
Summary of the method: as §1

[13] = molecular target: GlcNAc(b1-3)Gal(b1-4)GlcNAc(b1-6)[Gal(b1-3)]GalNAc
Summary of the method: as §1

[14] = molecular target: GlcNAc(b1-3)Gal(b1-4)GlcNAc(b1-6)[GlcNAc(b1-3)Gal(b1-3)]GalNAc
Summary of the method: as §1

[15] = molecular target: GlcNAc(b1-3)Gal(b1-4)GlcNAc(b1-6)[GlcNAc(b1-3)]Gal(b1-4)GlcNAc
Summary of the method: as §1

[16] = molecular target: GlcNAc(b1-3)GalNAc
Summary of the method: as §1

[17] = molecular target: GlcNAc(b1-3)Man
Summary of the method: as §1

[18] = molecular target: GlcNAc(b1-3)[GlcNAc(b1-4)][GlcNAc(b1-6)]GlcNAc
Summary of the method: as §1

[19] = molecular target: GlcNAc(b1-3)[GlcNAc(b1-6)]Gal(b1-4)GlcNAc
Summary of the method: as §1

[20] = molecular target: GlcNAc(b1-3)[GlcNAc(b1-6)]GalNAc
Summary of the method: as §1

[21] = molecular target: GlcNAc(b1-4)Gal(b1-4)GlcNAc
Summary of the method: as §1

[22] = molecular target: GlcNAc(b1-4)GlcNAc
Summary of the method: as §1

[23] = molecular target: GlcNAc(b1-4)GlcNAc(b1-4)GlcNAc
Summary of the method: as §1

[24] = molecular target: GlcNAc(b1-4)GlcNAc(b1-4)GlcNAc(b1-4)GlcNAc(b1-4)GlcNAc
Summary of the method: as §1

[25] = molecular target: GlcNAc(b1-4)GlcNAc(b1-4)GlcNAc(b1-4)GlcNAc(b1-4)GlcNAc(b1-4)GlcNAc
Summary of the method: as §1

[26] = molecular target: GlcNAc(b1-4)[GlcNAc(b1-6)]GalNAc
Summary of the method: as §1

[27] = molecular target: GlcNAc(b1-6)Gal(b1-4)GlcNAc
Summary of the method: as §1

[28] = molecular target: GlcNAc(b1-6)GalNAc
Summary of the method: as §1

[29] = molecular target: GlcNAc6S(b1-3)Gal(b1-4)GlcNAc
Summary of the method: as §1

[30] = molecular target: Kdn(a2-3)Gal(b1-3)GalNAc
Summary of the method: as §1

[31] = molecular target: Kdn(a2-3)Gal(b1-3)GlcNAc
Summary of the method: as §1

[32] = molecular target: Kdn(a2-3)Gal(b1-4)Glc
Summary of the method: as §1

[33] = molecular target: Kdn(a2-3)Gal(b1-4)GlcNAc
Summary of the method: as §1

[34] = molecular target: Kdn(a2-3)Gal(b1-4)[Fuc(a1-3)]GlcNAc
Summary of the method: as §1

[35] = molecular target: Kdn(a2-6)Gal(b1-4)GlcNAc
Summary of the method: as §1

[36] = molecular target: Man(a1-2)Man(a1-2)Man(a1-3)Man
Summary of the method: as §1

[37] = molecular target: Man(a1-2)Man(a1-2)Man(a1-6)[Man(a1-3)]Man
Summary of the method: as §1

[38] = molecular target: Man(a1-2)Man(a1-3)Man
Summary of the method: as §1

B1: MtEccB1 (Mycobacterium tuberculosis H37Rv), O69734 (protein)
chain: MGLRLTTKVQVSGWRFLLRRLEHAIVRRDTRMFDDPLQFYSRSIALGIVVAVLILAGAALLAYFKPQGKLGGTSLFTDRATNQLYVLLSGQLHPVYNLTSARLVLGNPANPATVKSSELSKLPMGQTVGIPGAPYATPVSAGSTSIWTLCDTVARADSTSPVVQTAVIAMPLEIDASIDPLQSHEAVLVSYQGETWIVTTKGRHAIDLTDRALTSSMGIPVTARPTPISEGMFNALPDMGPWQLPPIPAAGAPNSLGLPDDLVIGSVFQIHTDKGPQYYVVLPDGIAQVNATTAAALRATQAHGLVAPPAMVPSLVVRIAERVYPSPLPDEPLKIVSRPQDPALCWSWQRSAGDQSPQSTVLSGRHLPISPSAMNMGIKQIHGTATVYLDGGKFVALQSPDPRYTESMYYIDPQGVRYGVPNAETAKSLGLSSPQNAPWEIVRLLVDGPVLSKDAALLEHDTLPADPSPRKVPAGASGAP
[1]
  glycan array binding signal (z-score): 0.756
[2]
  glycan array binding signal (z-score): 0.269
[3]
  glycan array binding signal (z-score): 2.12
[4]
  glycan array binding signal (z-score): 0.955
[5]
  glycan array binding signal (z-score): 0.902
[6]
  glycan array binding signal (z-score): 2.37
[7]
  glycan array binding signal (z-score): -0.114
[8]
  glycan array binding signal (z-score): -0.532
[9]
  glycan array binding signal (z-score): 3.92
[10]
  glycan array binding signal (z-score): 0.477
[11]
  glycan array binding signal (z-score): -0.11
[12]
  glycan array binding signal (z-score): 1.16
[13]
  glycan array binding signal (z-score): 1.21
[14]
  glycan array binding signal (z-score): 0.429
[15]
  glycan array binding signal (z-score): -1.28
[16]
  glycan array binding signal (z-score): -0.534
[17]
  glycan array binding signal (z-score): -1.1
[18]
  glycan array binding signal (z-score): 0.769
[19]
  glycan array binding signal (z-score): -0.11
[20]
  glycan array binding signal (z-score): -0.073
[21]
  glycan array binding signal (z-score): -0.68
[22]
  glycan array binding signal (z-score): 0.434
[23]
  glycan array binding signal (z-score): -1.03
[24]
  glycan array binding signal (z-score): -0.566
[25]
  glycan array binding signal (z-score): -2.06
[26]
  glycan array binding signal (z-score): -0.393
[27]
  glycan array binding signal (z-score): 1.08
[28]
  glycan array binding signal (z-score): 0.192
[29]
  glycan array binding signal (z-score): -0.827
[30]
  glycan array binding signal (z-score): 0.396
[31]
  glycan array binding signal (z-score): -0.55
[32]
  glycan array binding signal (z-score): -0.792
[33]
  glycan array binding signal (z-score): -0.433
[34]
  glycan array binding signal (z-score): -1.29
[35]
  glycan array binding signal (z-score): -0.865
[36]
  glycan array binding signal (z-score): -1.02
[37]
  glycan array binding signal (z-score): 0.061
[38]
  glycan array binding signal (z-score): -0.429
